# From PubChem BioAssay AID493240 (Broad Institute, 2011)
# Among all 1,300 compounds or so, about 270 (21%) were called active. Inconclusive results, whose numbers are uncertain, are shown with a selection of clear calls. No rule for the calls is given here.
# Assay: cytotoxicity in parental SK-MEL-5 melanoma cells – cell-based, CellTiter-Glo, cherry-picked, set 3, orthogonal assay for MITF inhibitor project, dose response (AID 493240)
# Settings: SK-MEL-5 viability, ATP luminescence (CellTiter-Glo), 24 h; at 35 µM (top of the series)
row,Compound,"activity change, negative = viability loss"
1,CN(C)Cc1c(O)ccc2c1O/C(=C\C=C\c1ccccc1)C2=O,inactive: 6.11%
2,Cc1nc(SCC(=O)Nc2ccc(CN3CCCC3)cc2)c2c(C)c(C)sc2n1,inconclusive: -52.9%
